For some of these results: A negative result means that nothing was seen under these conditions. Protein sequences can lack the tags named with them. For some of these results: The comparison behind a weaker result is the experiment's own reference, which may not be listed here.
Experiments:
[1] = target: T1, Rev-erb alpha (NR1D1) (Homo sapiens) (UniProt P20393); assay: activity in cells; conditions: protein in cells, protein details: pSG5-hRev-erbα expression vector, only the site is given
T1 sequence (looked up, limits assumed): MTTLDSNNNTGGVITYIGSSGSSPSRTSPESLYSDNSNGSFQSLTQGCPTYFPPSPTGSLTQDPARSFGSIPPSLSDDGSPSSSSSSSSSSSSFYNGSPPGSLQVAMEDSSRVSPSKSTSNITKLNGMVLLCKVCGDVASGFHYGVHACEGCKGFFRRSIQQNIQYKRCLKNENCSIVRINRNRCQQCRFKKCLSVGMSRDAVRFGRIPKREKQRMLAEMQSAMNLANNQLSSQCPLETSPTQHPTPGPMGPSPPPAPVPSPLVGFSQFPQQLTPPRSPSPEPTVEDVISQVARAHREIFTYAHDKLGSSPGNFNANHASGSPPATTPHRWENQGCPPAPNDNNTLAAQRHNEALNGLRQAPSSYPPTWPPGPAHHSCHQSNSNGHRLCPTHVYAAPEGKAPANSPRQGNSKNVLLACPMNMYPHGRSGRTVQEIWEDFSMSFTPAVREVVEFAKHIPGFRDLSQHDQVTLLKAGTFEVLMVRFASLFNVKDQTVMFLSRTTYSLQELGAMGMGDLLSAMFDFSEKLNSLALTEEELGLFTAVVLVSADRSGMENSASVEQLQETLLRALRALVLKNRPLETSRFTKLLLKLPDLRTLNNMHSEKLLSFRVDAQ

[2] = target: T1, Rev-erb alpha (NR1D1) (Homo sapiens); assay: EMSA; conditions: monomer-type complex, weaker than Rev-DR2; protein translated in vitro; protein details: pSG5-hRev-erbα, TnT T7 rabbit reticulocyte lysate; label: 32P

With “GATCCGATAAAACACACATGAA / GATCTTCATGTGTGTTTTATCG [(-33/-16)TaTaKO, 3 copies upstream of Tk promoter]” the “activity on this sequence” value ([1]; mutation suppresses sensitivity to hRev-erbα) was “not active”.
In the case of “GATCCGATAAAACAGGTCAGAA / GATCTTCTGACCTGTTTTATCG [(-33/-16)WT, 3 copies upstream of Tk promoter]”, the “activity on this sequence” value ([1]; reporter repressed by hRev-erbα) is reported as “active”.
In the case of “GATCCGGAAAAGTGTGTCACTGGGGCACGA / GATCTCGTGCCCCAGTGACACACTTTTCCG [Rev-DR2]”, the “activity on this sequence” value ([1]; 3 copies upstream of Tk promoter, increased sensitivity to hRev-erbα) is reported as “active”.
“GATCTGATATAAAACAGGTCAGAACCCTC / GATCGAGGGTTCTGACCTGTTTTATATCA [HCIII-TaTaWT (-34/-10)]”: binds more weakly [2].
